Results on nine compounds are retold here after PubChem BioAssay AID330 (DTP/NCI, 2004).

The list does not hold the whole screen: it is rich in T/C values a quarter to a half above the control, in often repeated tests (any T/C) and in doses without a T/C. Further doses and runs are listed elsewhere. T/C: endpoint of the treated group in % of that of the vehicle group. Some entries give survivors of the animals treated and no T/C: the source files T/C as zero there, which appears to mark a toxic dose or a test without result, not a measured value. Some doses without a T/C left all or most animals alive at the check, yet need not have been tolerated: the source hardly ever lists a survival T/C far under the control, and the zero likely stands for such cases as well. Survivors were counted at the toxicity check, usually on the fifth day, unless a day is given; later deaths do not show. Schedule codes are those of the source, taken here to give the interval after Q, in days (D) or hours (H), and the number of doses after X. Some doses were run more than once; the values are given in rising order. Where survival is the endpoint, the PubChem record calls one and a half times the control and up active, and a quarter to a half above the control has no call in these data; cut-offs in other NCI protocols can differ.

The test system of the experiment is P388 leukemia ip, CD2F1 mice, survival T/C. Briefly: NCI In Vivo Anticancer Drug Screen. Data for tumor model P388 Leukemia (intraperitoneal) in CD2F1 (CDF1) mice. The conditions noted are these: T/C endpoint: median survival time, higher T/C = longer survival.

As to `COc1cc([C@@H]2c3cc4c(cc3[C@H](OC(=O)c3ccccc3C(=O)O)[C@H]3COC(=O)[C@H]23)OCO4)cc(OC)c1OC`, the T/C (dose: 50.0 mg/kg/injection, schedule: Q01DX005 (ip), vehicle: Klucel (hydroxypropylcellulose) (HPC)) is 128 and 130 % of control. The survivor count by setting is: (dose: 100.0 mg/kg/injection, schedule: Q01DX005 (ip), vehicle: Klucel (hydroxypropylcellulose) (HPC)) 1 of 6 and 3 of 6; (dose: 200.0 mg/kg/injection, schedule: Q01DX005 (ip), vehicle: Klucel (hydroxypropylcellulose) (HPC)) 0 of 6.
On to `O=C(Nc1cccc(Cl)c1)ON1C(=O)C2C(C1=O)C1(Cl)C(Cl)C(Cl)C2(Cl)C1(Cl)Cl` (stereo not drawn), for which the T/C (dose: 50.0 mg/kg/injection, schedule: Q01DX009 (ip), vehicle: saline with Tween-80) is 131 % of control and the T/C (dose: 200.0 mg/kg/injection, schedule: Q01DX009 (ip), vehicle: saline with Tween-80) was 128 % of control.
In the case of `OCCCC1CCCCN1` (stereo not drawn), the survivor count (dose: 100.0 mg/kg/injection, schedule: Q01DX001 (ip), vehicle: saline) is reported as 6 of 6.
With `CCSC(=Nc1nc2ccc(NC(C)=O)cc2s1)SCC`, the survivor count is reported as 6 of 6 (dose: 50.0 mg/kg/injection, schedule: Q01DX009 (ip), vehicle: Klucel (hydroxypropylcellulose) (HPC)); 6 of 6 (dose: 100.0 mg/kg/injection, schedule: Q01DX009 (ip), vehicle: Klucel (hydroxypropylcellulose) (HPC)); 3 of 6 (dose: 200.0 mg/kg/injection, schedule: Q01DX009 (ip), vehicle: Klucel (hydroxypropylcellulose) (HPC)).
With `CC[C@@]1(O)C(=O)OCc2c1cc1n(c2=O)Cc2cc3c(N)cccc3nc2-1`, the T/C (dose: 0.06 mg/kg/injection, schedule: Q01DX005 (ip), vehicle: saline with Tween-80) was 140 % of control. The survivor count runs as follows: (dose: 1.0 mg/kg/injection, schedule: Q01DX005 (ip), vehicle: saline with Tween-80) 6 of 6; (dose: 2.0 mg/kg/injection, schedule: Q01DX005 (ip), vehicle: saline with Tween-80) 6 of 6; (dose: 4.0 mg/kg/injection, schedule: Q01DX005 (ip), vehicle: saline with Tween-80) 6 of 6.
As to `C=C(C)C(C(=O)OCC)C(=O)OCC`, the survivor count (dose: 400.0 mg/kg/injection, schedule: Q01DX009 (ip), vehicle: saline with Tween-80) is recorded as 4 of 6.
As for `CCN(CC)CCCNc1c(OC)cc(C)c2sc3ccccc3c(=O)c12`, the survivor count (dose: 100.0 mg/kg/injection, schedule: Q01DX009 (ip), vehicle: saline) was 3 of 6 and the survivor count (dose: 200.0 mg/kg/injection, schedule: Q01DX009 (ip), vehicle: saline) is 0 of 6.
For the compound `Cc1cc(C#N)c[n+](C)c1`, the survivor count (dose: 240.0 mg/kg/injection, schedule: Q01DX005 (ip), vehicle: saline) is 1 of 6.
For `O=[N+]([O-])c1ccc(/C=N/Nc2nnc(-c3ccccc3)c(-c3ccccc3)n2)o1`, under “dose: 100.0 mg/kg/injection, schedule: Q01DX005 (ip), vehicle: saline with Tween-80”, the survivor count is 6 of 6.
